About 5,500 (1.4%) of roughly 400,000 compounds were called active. Inconclusive results, whose numbers are uncertain, are shown with a selection of clear calls. The call rests on the fitted dose curve; in most records, active means well fitted cell-killing curve with a large enough effect; inconclusive means small, poorly fitted or top-dose-only effect, or effect the other way; inactive means flat fitted curve, though single readings scatter. Potencies beside an inconclusive call are fits to weak or partial responses and may not hold up.
Test: qHTS assay for MDR1-selective chemotherapeutics: Primary screen using the parental adenocarcinoma cell KB-3-1; further: nearly all actives have a fitted effect of over 60% in size
Details: KB-3-1 viability, CellTiter-Glo ATP luminescence, 72 h; activity change, negative = cytotoxic: at 46.1 µM (top of the series)
Method in brief: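 Cells are dispensed, compounds pinned in, plates held at 37 °C for 72 h, then CellTiter-Glo is added and luminescence read after 10 minutes. Cell line: parental KB-3-1 in phenol-red-free DMEM, 10% FBS.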
On the % scale 0 is the no-effect control and ±100 the full control effect; potency means the concentration at half of the fitted maximal effect.

Structure (SMILES)	Potency	activity change, negative = cytotoxic
COc1ccc(CNc2ncnc3sccc23)cc1	inconclusive: 1.64 µM [cytotoxic, full curve, poor fit]	
COc1ccc(C(=O)C(=O)N2CCN(c3ccccc3F)CC2)cc1		inactive: -16.6%
O=C(Nc1cccc2ccccc12)OCc1ccccc1		inactive: -7.39%
C=CCNC(=O)C1CC1(c1ccccc1)c1ccccc1 (stereo not given)		inactive: -4.19%
O=C(Nc1ccccc1F)c1ccc2c(Cl)c3c(nc2c1)CCC3	inconclusive: 14.6 µM [cytotoxic, partial curve]	
Nn1cnnc1N/N=C/c1cc(Br)cc(Br)c1O	inconclusive: 29.1 µM [cytotoxic, single point]	
CC1(C)CC(=O)C2=C(C1)OC1=C(C(=O)CC(C)(C)C1)C2c1cc([N+](=O)[O-])cc([N+](=O)[O-])c1O	inconclusive: 23.1 µM [cytotoxic, single point]	
CNc1cncc(-c2cccc(OC)c2F)n1		inactive: 0%
CN(CC(=O)NC(=O)NCc1ccccc1)CC(=O)Nc1ccc(Cl)c(C(F)(F)F)c1	inconclusive: 29.1 µM [cytotoxic, single point]	
CC(=O)c1c(C)oc2c1cc(NS(=O)(=O)c1ccc(Br)cc1)c1ccccc12	active: 5.17 µM	
O=C1CCCC2=C1C(c1ccccc1)C1C(=O)c3ccccc3C1=N2 (stereo not given)	inconclusive: 20.6 µM [cytotoxic, partial curve]	
COC(=O)c1ccc(NC(=O)CCn2cnnn2)cc1		inactive: 6.83%
CCOc1ccccc1CNCc1cccn1-c1nnc(N2CCN(c3ccccc3)CC2)s1	inconclusive: 29.1 µM [cytotoxic, single point]	
c1ccc(COc2ccc(OCCCNC3CCCC3)cc2)cc1	inconclusive: 29.1 µM [cytotoxic, single point]	
Cc1ccc(NC(=O)CNC(=O)c2cccc(Cl)c2)nc1	inconclusive: 29.1 µM [rising, single point]	
CSc1cccc(N2C(=O)C3CCCN3C2=S)c1 (stereo not given)	inconclusive: 29.1 µM [cytotoxic, single point]	
O=C(NNC(=S)NC(=O)c1ccccc1Cl)c1cccc([N+](=O)[O-])c1	inconclusive: 29.1 µM [cytotoxic, single point]	
Cc1ccc(Oc2c(CO)c(-c3ccccc3)nn2C)cc1	inconclusive: 29.1 µM [cytotoxic, single point]	
CCCCCCC1(C)NC(=O)N(C(C)C(=O)Nc2ccc(N3CCOCC3)cc2)C1=O (stereo not given)		inactive: 3.47%
Cc1csc(NC(=O)c2ccc(S(=O)(=O)N3CCCC3)cc2)n1		inactive: 0%
Cc1ncc(CO)c(/C=N/Nc2ccc(C(F)(F)F)cn2)c1O	inconclusive: 6.51 µM [cytotoxic, full curve, poor fit]	
CN1CCN(S(=O)(=O)c2ccc(-c3ccccc3)cc2)CC1		inactive: -0.565%
Cc1c(C)n(Cc2ccc(Cl)cc2)c2ccc(C(=O)NCCN3CCOCC3)cc12	inconclusive: 29.1 µM [cytotoxic, single point]	
Cc1cc(C)c(S(=O)(=O)Nc2ccc3c4c(cccc24)CC3)c(C)c1	active: 0.731 µM	
C[C@@H]1CC=C[C@H]2[C@H]1C(=O)N(Cc1ccccc1)[C@H]2c1ccc(-c2ccc(F)cc2)cc1F	inconclusive: 20.6 µM [cytotoxic, single point]	

Structure (SMILES)	Potency	activity change, negative = cytotoxic
CC1CC(C)CN(S(=O)(=O)c2ccc(NC(=O)c3ccc(=O)[nH]c3)cc2)C1 (stereo not given)	active: 4.61 µM	
COc1ccc(Cl)cc1NS(=O)(=O)c1cccc(C(=O)NC2CC2)c1		inactive: -10.2%
O=[N+]([O-])c1cccc(/C=C/c2nc3ccc([N+](=O)[O-])cc3[nH]2)c1	inconclusive: 29.1 µM [cytotoxic, single point]	
Cc1cccc(C)c1-n1nnnc1C(c1ccnc2ccccc12)N1CCN(C/C=C/c2ccccc2)CC1 (stereo not given)	inconclusive: 29.1 µM [cytotoxic, single point]	
Cc1ccccc1NS(=O)(=O)c1cc(C(=O)N2CCCC2)ccc1C		inactive: -1.25%
N=c1n(Cc2ccccc2)c2ccccc2n1CC(O)COc1ccc(Cl)cc1Cl (stereo not given)	inconclusive: 18.4 µM [cytotoxic, single point]	
CCOc1ccccc1OCCCC(=O)N1CCN(S(=O)(=O)c2ccc(Cl)cc2)CC1		inactive: -1.53%
Cc1c(C(=O)N2CCN(Cc3ccccc3)CC2)sc2ncnc(N3CCOCC3)c12		inactive: -6.78%
CC(N=C(NC#N)Nc1ccncc1)C(C)(C)C (stereo not given)	inconclusive: 6.51 µM [cytotoxic, full curve]	
COC(=O)C1=C(C)NC(=O)/C1=C\c1cc(C)n(-c2cc(C)cc(C)c2)c1C	inconclusive: 29.1 µM [cytotoxic, single point]	
COc1ccc(C(=O)C2CCCN(C(=O)c3ccnn3C)C2)c(C)c1 (stereo not given)	inconclusive: 20.6 µM [cytotoxic, single point]	
O=C(O)c1ccc(S(=O)(=O)c2ccc(Sc3ccc(C(=O)O)c(C(=O)O)c3)cc2)cc1	inconclusive: 29.1 µM [cytotoxic, single point]	
CC1CC(=O)C2=C(C1)OC(N)=C(C#N)C2c1coc2ccccc2c1=O (stereo not given)	inconclusive: 29.1 µM [rising, partial curve, poor fit]	
O=C(C[n+]1cc(Br)cc2ccccc21)c1ccc(Br)cc1	inconclusive: 29.1 µM [cytotoxic, single point]	
CCn1c(=N)n(CC(O)COc2cccc(C)c2)c2ccccc21 (stereo not given)	inconclusive: 18.4 µM [cytotoxic, single point]	
Cc1cccc(N2CCN(C(=O)CNC(=O)C3CCCCC3)CC2)c1C	inconclusive: 23.1 µM [cytotoxic, partial curve, poor fit]	
C=CCOc1ccn(C)c(=O)n1		inactive: 3.97%
CC(=O)N1CSCC1C(=O)NNS(=O)(=O)c1cccc(C(F)(F)F)c1 (stereo not given)		inactive: 3.79%
Nc1ccc2c(c1)COc1ccccc1O2		inactive: 6.19%
Cc1cc(C)cc(NC(=O)c2cc(CN3CCCC3)on2)c1		inactive: 0.439%
Cc1ccccc1C(=O)Nc1nnc(-c2ccncc2)o1		inactive: -13.9%
CNC(=O)CN1C(=O)NC(Cc2c[nH]c3ccccc23)C1=O (stereo not given)	inconclusive: 29.1 µM [rising, single point]	
CN1CCCc2ccccc21		inactive: 13.5%
COCCCN1C(=O)c2[nH]nc(-c3ccccc3O)c2C1c1cccc(Cl)c1 (stereo not given)	active: 8.2 µM	
COC(=O)c1ccc(NC(=O)c2ccc(CN3CCOCC3)cc2)cc1		inactive: -2.87%

Structure (SMILES)	Potency	activity change, negative = cytotoxic
O=C(NCCCN1CCOCC1)c1ccc2nc(Cc3cccc(Cl)c3)oc2c1	inconclusive: 29.1 µM [rising, single point]	
CC(C)c1ccc(NC(=O)C(=O)C2C(=O)Nc3ccccc32)cc1 (stereo not given)		inactive: 0.475%
COc1ccc(N2CSC3=C(C#N)C(c4cc(OC)c(OC)cc4OC)CC(=O)N3C2)c(OC)c1 (stereo not given)		inactive: 12.2%
CN(C)CCCN(C(=O)c1cc2cc([N+](=O)[O-])ccc2s1)c1nc2cc3c(cc2s1)OCCO3	inconclusive: 29.1 µM [cytotoxic, single point]	
CCCn1nc(C(=O)N(C)CC(=O)Nc2ccc(OCC)c(OCC)c2)c2ccccc2c1=O		inactive: 11.2%
OC(Cc1cccnc1)(c1ccccc1)c1ccccc1	inconclusive: 20.6 µM [cytotoxic, single point]	
Cc1ccc(CNC(=O)c2cc(C)nc3c2c(C)nn3-c2ccc(C)cc2)cc1		inactive: 2.33%
CN(c1ccccc1)c1nc(N)c([N+](=O)[O-])c(NCc2ccco2)n1	inconclusive: 32.6 µM [cytotoxic, single point]	
O=C(Nc1cccc(S(=O)(=O)N2CCCCC2)c1)c1ccc2ncsc2c1	inconclusive: 18.4 µM [cytotoxic, single point]	
Cc1ccc(-n2c(C)nc3c(cnn3-c3ccc(F)cc3)c2=O)cc1C	inconclusive: 25.9 µM [cytotoxic, single point]	
CCC(=O)c1ccc(N2CCN(C(=O)c3ccccc3Br)CC2)c(F)c1	inconclusive: 18.4 µM [cytotoxic, single point]	
CCc1ccc2c(CN(C)Cc3ccccc3OC)cc(=O)oc2c1	inconclusive: 20.6 µM [cytotoxic, single point]	
CCOc1ccc(NC(=O)CN(C)Cc2cc(=O)n3c(-c4ccccc4)csc3n2)cc1OCC	inconclusive: 10.3 µM [rising, partial curve, poor fit]	
Cn1nnnc1Sc1ncnc2scc(-c3cccc(F)c3)c12		inactive: 0%
CCCCCCCNC(=O)c1ccc(N2CCC3(CC2)OCCO3)c([N+](=O)[O-])c1		inactive: -23.7%
CCOc1ccc(NS(=O)(=O)c2cc(C(=O)NCCN3CCOCC3)ccc2C)cc1		inactive: 1.39%
COc1cccc(-n2c(SCC(N)=O)nnc2-c2c[nH]c3ccccc23)c1		inactive: 0%
CCCCn1c(SCC(=O)Nc2cc(NC(=O)c3ccco3)ccc2C)nc2ccccc2c1=O		inactive: 16.4%
c1ccc(CCNc2ncnc3ccccc23)cc1	inconclusive: 1.3 µM [cytotoxic, partial curve, poor fit]	
COc1ccc(OC)c(Nc2nc(C3CC3)nc3c2nnn3Cc2ccccc2)c1		inactive: -4.52%
Cc1ccc(S(=O)(=O)NC(=O)NC(C)c2ccc(F)cc2)cc1 (stereo not given)		inactive: -3.54%
COc1ccc2[nH]c(=O)c(CN(Cc3ccco3)C(=O)c3ccccc3)cc2c1	inconclusive: 0.0046 µM [cytotoxic, full curve, poor fit]	
COC(=O)c1cc(S(=O)(=O)Nc2cccc(-c3ccno3)c2)c[nH]1		inactive: -15.4%
O=C(NC1=NCCS1)c1cc(-c2cccc(Br)c2)nc2ccccc12	inconclusive: 18.4 µM [cytotoxic, single point]	
CC1CN(C(=O)c2ccc(-c3cccc(C(F)(F)F)c3)o2)CC(C)O1 (stereo not given)	inconclusive: 29.1 µM [cytotoxic, single point]	

Some of these compounds in order of heavy-atom count, descending.
Structure (SMILES)	Potency	activity change, negative = cytotoxic
CCOc1ccc(NS(=O)(=O)c2cc(C(=O)NCCN3CCOCC3)ccc2C)cc1		inactive: 1.39%
O=C(Nc1cccc(S(=O)(=O)N2CCCCC2)c1)c1ccc2ncsc2c1	inconclusive: 18.4 µM [cytotoxic, single point]	
CC(C)c1ccc(NC(=O)C(=O)C2C(=O)Nc3ccccc32)cc1 (stereo not given)		inactive: 0.475%

Given in CSV form: 2 of the compounds above.
Structure (SMILES),Potency,"activity change, negative = cytotoxic"
CCCCCCCNC(=O)c1ccc(N2CCC3(CC2)OCCO3)c([N+](=O)[O-])c1,,inactive: -23.7%
CCOc1ccc(NS(=O)(=O)c2cc(C(=O)NCCN3CCOCC3)ccc2C)cc1,,inactive: 1.39%

Reference: PubChem BioAssay AID1347075 (National Center for Advancing Translational Sciences (NCATS), 2019)
